Data published in PubChem BioAssay AID504648 (National Center for Advancing Translational Sciences (NCATS), 2011).
The campaign covered roughly 390,000 compounds. About 610 (0.16%) were called active. Inconclusive results, whose numbers are uncertain, are shown with a selection of clear calls. The call rests on the fitted dose curve; in most records, active means well fitted inhibition curve with a large enough effect; inconclusive means small, poorly fitted or top-dose-only effect, or effect the other way, or another doubt; inactive means no such curve, though single readings can be large or run the other way. Potencies beside an inconclusive call are fits to weak or partial responses and may not hold up.
On the % scale 0 is the no-effect control and ±100 the full control effect; potency means the concentration at half of the fitted maximal effect.

Test: Nrf2 qHTS screen for inhibitors: counterscreen for cytotoxicity
Conditions: A549 ARE-Fluc cells, CellTiter-Fluor viability, 18-24 h; activity change, negative = cytotoxicity: at 46 µM (top of the series)
Summary of the method: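 Cytotoxicity counterscreen: CellTiter-Fluor fluorescence was measured in A549 ARE_Fluc cells after 18-24 h of compound exposure in a concentration series. The subsequent BugLite luminescent read reports ARE-luciferase activity.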
In the case of `COc1ccc(C(=O)Nc2ccc3nc(SCC(=O)N(C)c4ccccc4)sc3c2)cc1`, the Potency is reported as inconclusive: 4.11 µM [falling, full curve]. For `CC(=O)Nc1cccc(NC(=O)Cc2cccs2)c1`, the Potency was inconclusive: 14.6 µM [falling, partial curve, poor fit]. With `O=C(Nc1nc2ccc(F)cc2s1)c1nc(S(=O)(=O)Cc2ccccc2F)ncc1Cl` the Potency was inconclusive: 29.1 µM [falling, single point]. With `Cc1ccc(Sc2nc(C)c([N+](=O)[O-])c(C)c2C#N)cc1` the Potency was inconclusive: 0.259 µM [falling, partial curve, poor fit]. For `Cc1cc(C(=O)N/N=C/c2ccc(O)c([N+](=O)[O-])c2)n[nH]1`, the Potency was inconclusive: 23.1 µM [falling, partial curve, poor fit]. For `Cc1onc(-c2ccccc2Cl)c1C(=O)OCc1cnc(Cl)s1`, the Potency was inconclusive: 23.1 µM [activator, partial curve, poor fit]. For `Cc1c(C(=O)Nc2ccc(F)c(C(F)(F)F)c2)sc2nc(-c3ccccc3)cn12`, the Potency was inconclusive: 29.1 µM [falling, partial curve, poor fit]. For `O=C(Nc1nnc(-c2ccco2)o1)c1ccc([N+](=O)[O-])s1`, the Potency was inconclusive: 32.6 µM [falling, single point]. In the case of `COC(=O)c1cc(S(=O)(=O)NCC2CCN(CCc3cccs3)CC2)cn1C`, the Potency is reported as inconclusive: 16.4 µM [falling, single point]. With `C[n+]1cc2c3c(ccc2c2ccc4cc5c(cc4c21)OCO5)OCO3` the Potency was inconclusive: 29.1 µM [falling, single point]. With `CCCS(=O)(=O)N1CCN=C1SCc1ccc(C)cc1` the “activity change, negative = cytotoxicity” value was inactive: 0%. For `Cc1cccc(NS(=O)(=O)c2cc(C(=O)N3CCc4ccccc4C3)ccc2Cl)c1C`, the Potency was inconclusive: 16.4 µM [falling, single point]. In the case of `O=c1nc(/C=C/c2cccn2-c2ccc([N+](=O)[O-])cc2)cc(C(F)(F)F)[nH]1`, the Potency is reported as inconclusive: 16.4 µM [falling, partial curve, poor fit]. For `CC(C)CC(NS(=O)(=O)OCC(Cl)(Cl)Cl)c1ccccc1` (stereo unspecified), the Potency was inconclusive: 16.4 µM [falling, partial curve, poor fit]. In the case of `Fc1ccc(C2=CC(c3ccco3)n3ncnc3N2)cc1` (stereo unspecified), the Potency is reported as inconclusive: 29.1 µM [activator, partial curve, poor fit]. In the case of `COc1ccc(NC(=O)c2cccc(Cn3cc(Br)c([N+](=O)[O-])n3)c2)c(C)c1`, the Potency is reported as inconclusive: 20.6 µM [activator, partial curve, poor fit]. For `Clc1ccccc1CSc1nnc(C2CCNCC2)o1`, the “activity change, negative = cytotoxicity” value was inactive: -7.15%. In the case of `CCOc1ccc(NC(=O)CCCOc2cc(=O)n(C)c3ccccc23)cc1`, the Potency is reported as inconclusive: 32.6 µM [activator, partial curve, poor fit]. For `COc1ccc(SCC(=O)Nc2ccc(N3CCN(C)CC3)c(F)c2)cc1`, the “activity change, negative = cytotoxicity” value was inactive: -0.777%. With `O=[N+]([O-])/C=C/c1cn(Cc2ccc(F)cc2)c2ccccc12` the Potency was inconclusive: 20.6 µM [falling, partial curve, poor fit]. For `CCN=C1SC(CC(=O)NCCc2ccc(OC)cc2)C(=O)N1CC` (stereo unspecified), the Potency was inconclusive: 5.17 µM [falling, single point]. In the case of `COc1ccc(N2CCN(S(=O)(=O)CCNC(=O)Cc3ccc(OC)c(OC)c3)CC2)cc1`, the Potency is reported as inconclusive: 18.4 µM [activator, partial curve, poor fit]. With `Cc1ccc(S(=O)(=O)N2C[C@@H]3[C@H]4CC[C@H](C4)[C@@H]3[C@@H](C)[C@H]2c2ccco2)cc1` the “activity change, negative = cytotoxicity” value was inactive: 15.4%. In the case of `CC(=O)N1CC(C)Sc2ccc(S(=O)(=O)NCCc3ccccc3)cc21` (stereo unspecified), the “activity change, negative = cytotoxicity” value is reported as inactive: -16%. In the case of `CCS(=O)(=O)c1oc(-c2ccc(F)cc2)nc1S(=O)(=O)c1ccccc1`, the Potency is reported as inconclusive: 20.6 µM [falling, single point]. For `CCCCN(CC)C(=O)c1nn(-c2ccc(OC)cc2)c(=O)c2c1c1ccccc1n2C`, the “activity change, negative = cytotoxicity” value was inactive: -8.72%. For `CC(C)C[C@H](NC(=O)c1[nH]cnc1C(=O)N[C@@H](Cc1ccccc1)C(=O)OC(C)(C)C)C(=O)OC(C)(C)C`, the Potency was inconclusive: 29.1 µM [falling, single point]. In the case of `Cn1c(=O)c([N+](=O)[O-])c(NC2CCS(=O)(=O)C2)c2ccccc21` (stereo unspecified), the Potency is reported as inconclusive: 29.1 µM [falling, single point]. For `CCCN1CCN(CC2=C(C(=O)OCC)C(c3ccc(OC(C)C)cc3)NC(=O)N2)CC1` (stereo unspecified), the “activity change, negative = cytotoxicity” value was inactive: -8.2%. With `C=Cc1ccc(Cn2c(C(=O)O)c(CNC3CCCCC3)c3ccc(OC)cc32)cc1` the Potency was inconclusive: 20.6 µM [falling, single point]. With `COC(=O)C1=C(C(=O)OC)N2C=CC=CC2(C)C(C(=O)OC)=C1C(=O)OC` (stereo unspecified) the “activity change, negative = cytotoxicity” value was inactive: -18%. With `CCCCNC(=O)NNC(=O)c1cc(C)on1` the “activity change, negative = cytotoxicity” value was inactive: -2.15%. In the case of `C#CCOCCOCCOCCNc1nc(N2CCN(C(=O)CCCCCCCCCCNC(=O)Cn3cc(C[C@@H](C)O)nn3)CC2)nc(N2CCN(C(=O)CCCCCCCCCCNC(=O)Cn3cc(C[C@@H](C)O)nn3)CC2)n1`, the Potency is reported as inconclusive: 23.1 µM [falling, single point]. For `CCCN(CCC)Cc1c(C(=O)N/N=C/c2ccc(Br)cc2)nnn1-c1nonc1N`, the Potency was inconclusive: 32.6 µM [falling, partial curve, poor fit]. With `N#Cc1c(N)nc(SCC(=O)OCc2ccccc2)c(C#N)c1-c1ccco1` the “activity change, negative = cytotoxicity” value was inactive: 9.71%. In the case of `Cc1ccc(C(=O)ON=C2CCN(c3ccc([N+](=O)[O-])cc3)CC2)cc1`, the Potency is reported as inconclusive: 29.1 µM [falling, single point]. With `CCOc1ccc(NC(=O)CSc2nnc(CNC(=O)C34CC5CC(CC(C5)C3)C4)n2CC)cc1` the Potency was inconclusive: 0.366 µM [activator, full curve, poor fit]. In the case of `COc1ccc(-c2nc(CN3CCN(c4ncnc5ccccc45)CC3)c(C)o2)c(OC)c1`, the Potency is reported as inconclusive: 16.4 µM [falling, single point]. In the case of `O=C(NC(Cc1ccccc1)C(=O)O)/C(=C\c1ccc(Br)cc1)NC(=O)c1ccc(Br)o1` (stereo unspecified), the Potency is reported as inconclusive: 11.6 µM [falling, partial curve, poor fit]. With `C[C@@]12C(=O)N(c3cccc(Cl)c3)C(=O)N1[C@H](c1ccc(Cl)cc1)[C@@H]1C(=O)N(C3CCCCC3)C(=O)[C@@H]12` the Potency was inconclusive: 16.4 µM [falling, partial curve, poor fit]. With `CCOC(=O)CN1C(c2ccc(O)cc2)Nc2ccc(Br)cc2C1c1ccccc1` (stereo unspecified) the Potency was inconclusive: 6.51 µM [activator, partial curve, poor fit]. For `Cc1cccc2cc(CN(CC3CCCO3)C(c3nnnn3Cc3ccco3)C(C)C)c(=O)[nH]c12` (stereo unspecified), the Potency was inconclusive: 29.1 µM [falling, single point]. For `CC(Oc1ccccc1)C(=O)Nc1ccccc1C(=O)OCc1cc(=O)n2nc(C(C)C)sc2n1` (stereo unspecified), the Potency was inconclusive: 29.1 µM [falling, single point]. For `O=C(NCCc1ccccc1)c1ccc(Cn2c(SCc3ccccc3F)nc3cccnc32)cc1`, the Potency was inconclusive: 23.1 µM [falling, single point]. In the case of `O=C(Oc1c(Br)cc([N+](=O)[O-])cc1Br)c1cccnc1`, the Potency is reported as inconclusive: 20.6 µM [falling, single point]. With `C=CCNc1nnc(Cl)c2ccccc12` the Potency was inconclusive: 25.9 µM [falling, partial curve, poor fit]. In the case of `O=c1c(-c2nnc(SCc3ccc(Cl)cc3)o2)cccn1Cc1ccccc1`, the Potency is reported as inconclusive: 20.6 µM [falling, single point]. In the case of `CCOC(=O)N1CCN(C(=O)c2ccc(Cn3c(=S)[nH]c4ccc(Br)cc4c3=O)cc2)CC1`, the Potency is reported as inconclusive: 7.31 µM [falling, partial curve]. For `COc1ccc(C(=O)N(C)Cc2ccccn2)cc1OC1CCN(C(C)C)CC1`, the “activity change, negative = cytotoxicity” value was inactive: -7.63%. In the case of `CCc1nn(C(C)C(=O)N2CCN(c3ccccc3)CC2)c(=O)c2cc3occc3n12` (stereo unspecified), the Potency is reported as “inactive”. With `Cc1cccc(N2CCN(C(=O)C3CCN(c4ncnc5c4nc4n5CCCCC4)CC3)CC2C)c1` (stereo unspecified) the Potency was inconclusive: 23.1 µM [falling, single point]. For `Nc1n[nH]c2c1C1(CCCCC1)Cc1ccccc1-2`, the Potency was inconclusive: 32.6 µM [falling, single point]. In the case of `CSc1ccc(CCNC(=O)c2ccc3c(Cl)c4c(nc3c2)CCCC4)cc1`, the Potency is reported as inconclusive: 14.6 µM [falling, partial curve, poor fit]. In the case of `CCS(=O)(=O)c1ncc(Cl)c(C(=O)NCc2ccc(OC)cc2)n1`, the Potency is reported as inconclusive: 29.1 µM [falling, single point]. In the case of `c1ccc(-c2nc(NCCCn3ccnc3)c3oc4ccccc4c3n2)cc1`, the Potency is reported as inconclusive: 23.1 µM [falling, single point]. For `Cc1cc(C)c2c(CC(=O)N(Cc3ccc(Cl)cc3)Cc3ccco3)coc2c1`, the “activity change, negative = cytotoxicity” value was inactive: 4.61%. For `Cc1nc(CSc2nnc(C)s2)cs1`, the Potency was inconclusive: 6.51 µM [activator, partial curve, poor fit]. In the case of `O=C(/C=C/c1ccccc1)c1ccccc1O`, the Potency is reported as inconclusive: 29.1 µM [falling, single point]. With `COc1cccc(NC(=S)N2CCN(Cc3ccccc3)CC2)c1` the Potency was inconclusive: 20.6 µM [activator, partial curve, poor fit]. With `CSC1=NCCN1C(=O)Cc1ccc(-c2ccccc2)cc1` the Potency was inconclusive: 3.66 µM [activator, partial curve, poor fit]. For `Cc1ccc(S(=O)(=O)Nc2ccc3nc(-c4ccc(F)cc4)oc3c2)cc1`, the “activity change, negative = cytotoxicity” value was inactive: -1.39%.
